Laboratory results from PubChem BioAssay AID540276 (National Center for Advancing Translational Sciences (NCATS), 2011).
Several values for one entry are separate records, joined by “and”; a condition that tells them apart may be missing. Identical values can stand only once. Screen size: about 300,000 compounds; about 5,400 (1.8%) were called active. This list was built around the results that the source calls inconclusive (neither active nor inactive); the mix of calls is not that of the screen. Calls come from the whole dose curve; tested in HEK293 cells. Potencies beside an inconclusive call are fits to weak or partial responses and may not hold up.

assay: qHTS for inhibitors of binding or entry into cells for Marburg Virus; conditions: Marburg virus pseudotyped entry inhibition, cell reporter; activity change, negative = inhibition: at 37.8 µM (top of the series) unless noted
% is set by controls: 0 for no effect and ±100 for the full control effect; potency is the fitted concentration of half-maximal effect.

Structure (SMILES) | Potency | activity change, negative = inhibition
Cc1cc(C(=O)Nc2nc3ccc(S(C)(=O)=O)cc3s2)c(C)o1 | inconclusive: 3.26 µM [activator, single point] | –
CNC(=O)c1cc(C)c(-c2ccccc2)s1 | – | inactive: -2.11%
Cc1ccccc1NC(=O)C(c1ccccc1)C1CCCC1 (stereo unspecified) | inconclusive: 17.8 µM [inhibitor, single point] | –
O=C(NCCCc1nc2ccccc2n1Cc1ccc(Cl)cc1)c1ccco1 | – | inactive: -9.96% [at 46.1 µM]
COc1ccc(C(=O)Nc2cc3c4c(c2)C(C)C(=O)N4CCC3)cc1 (stereo unspecified) | – | inactive: -5.01%
CCN(CC(=O)Nc1ccc2c(c1)OCCO2)C(=O)c1ccc(C)c(S(=O)(=O)N2CCOCC2)c1 | inconclusive: 0.251 µM [inhibitor, partial curve, poor fit] | –
O=C(Nc1ccc(CN2CCCCC2)cc1)c1sc2ccccc2c1Cl | inconclusive: 22.4 µM [inhibitor, single point] | –
O=C(CN1CCOCC1)Nc1cc(C(F)(F)F)ccc1Cl | inconclusive: 4.47 µM [inhibitor, single point] | –
Cn1c(SCc2ccc(C(C)(C)C)cc2)nnc1C1COc2ccccc2O1 (stereo unspecified) | inconclusive: 11.2 µM [inhibitor, partial curve, poor fit] | –
Cc1nc(C)c(C(=O)NNS(=O)(=O)c2ccc([N+](=O)[O-])cc2)s1 | inconclusive: 35.5 µM [activator, single point] | –
CCOc1ccccc1N1CCN(C(=S)NCc2ccccc2)CC1 | inconclusive: 17.8 µM [inhibitor, single point] | –
CN(C)S(=O)(=O)c1cccc(NC(=O)c2cc(-c3cccs3)nc3ccccc23)c1 | inconclusive: 15.8 µM [inhibitor, single point] | –
O=C(CN(Cc1ccco1)C(=O)CNS(=O)(=O)c1ccc(F)cc1)NCCc1ccccc1 | inconclusive: 11.2 µM [inhibitor, single point] | –
Cc1cc(NC(=O)CSc2nc3ccccc3c(=O)n2-c2ccccc2)no1 | inconclusive: 6.31 µM [inhibitor, single point] | –
COc1cc(NS(=O)(=O)c2ccc(NC(=S)NC(=O)c3sc4cc(F)ccc4c3Cl)cc2)nc(OC)n1 | inconclusive: 15.8 µM [activator, single point] | –
Fc1ccccc1CSc1nnc(-c2cnccn2)n1Cc1ccco1 | – | inactive: 2.73%
O=c1c(Cc2ccc(Cl)cc2Cl)c(O)ccn1CCCN1CCOCC1 | – | inactive: -0.214% [at 46.1 µM]
CCN1CCCC1CNC(=O)CCc1nc(-c2ccc(C)cc2)no1 (stereo unspecified) | inconclusive: 0.141 µM [activator, full curve, poor fit] | –
COC(=O)/C(=C1/Oc2cc(C)oc(=O)c2S1)C(F)(F)F | inconclusive: 7.94 µM [inhibitor, partial curve, poor fit] | –
CCCn1c(N2CCN(C(=O)Nc3ccc(Cl)cc3)CC2)nc2ccccc21 | inconclusive: 35.5 µM [inhibitor, single point] | –
O=C(NC1CCCC1)C(=O)N(Cc1cccnc1)C(C(=O)NCc1ccco1)c1ccccc1F (stereo unspecified) | – | inactive: -3.02% [at 46.1 µM]
O=C(/C=C/c1c(Cl)nc2ccccn12)N1CCN(c2ccccc2F)CC1 | inconclusive: 31.6 µM [inhibitor, single point] | –

Structure (SMILES) | Potency | activity change, negative = inhibition
CC(=O)NC1CC2CCCC(C1)N2C(=O)Nc1ccccc1 (stereo unspecified) | inconclusive: 0.92 µM [inhibitor, partial curve, poor fit] | –
Cc1noc(C)c1CCC(=O)NC1CCCN(Cc2ccc(Cl)cc2)C1 (stereo unspecified) | inconclusive: 7.94 µM [inhibitor, partial curve, poor fit] | –
O=c1[nH]c(=O)n([C@H]2C[C@@H](O)[C@@H](CO)O2)cc1C=CBr | – | inactive: 19.8%
COc1ccc(NCc2nnc(SCC(=O)N3CCCc4ccccc43)o2)cc1 | inconclusive: 20.6 µM [inhibitor, single point] | –
O=C(COC(=O)c1ccccc1O)NC12CC3CC(CC(C3)C1)C2 | inconclusive: 0.708 µM [activator, full curve] | –
C=C1SC(=Nc2ccccc2Cl)N(C(=O)c2sc3ccccc3c2Cl)C1(C)C | inconclusive: 17.8 µM [inhibitor, partial curve, poor fit] | –
CCSc1ncc(Cl)c(C(=O)N2CCN(c3ccc(OC)cc3)CC2)n1 | – | inactive: -7.68% [at 46.1 µM]
O=C(N/N=C/c1ccc2cccc(OCc3ccccc3)c2n1)c1ccc(Br)cc1 | active: 16.4 µM | –
Cc1cc(C)cc(OCC(=O)OCCN2C(=O)c3ccccc3C2=O)c1 | inconclusive: 6.31 µM [activator, single point] | –
O=C(/C=C/c1cc(Br)ccc1F)OCC(=O)N1CCCC1 | inconclusive: 3.16 µM [inhibitor, single point] | –
Cc1nn(Cc2c(F)c(F)c(F)c(F)c2F)c(C)c1NC(=O)c1ccc(COc2ccccc2Cl)cc1 | – | inactive: 2.2%
C=CCNC(=O)NC(=O)COC(=O)CC(NC(N)=O)c1ccc(Cl)cc1 (stereo unspecified) | – | inactive: 17.7%
Cc1ccc(-c2nnc(NC(=O)c3ccco3)o2)c(C)c1 | inconclusive: 20 µM [inhibitor, single point] | –
COc1ccc(C(=O)N/N=C/c2ccc(OC(=O)c3cccs3)cc2)cc1 | inconclusive: 6.31 µM [activator, single point] | –
CCOCC(=O)Nc1nc2ccc(OCC)cc2s1 | inconclusive: 18.3 µM [inhibitor, single point] | –
Cc1[nH]n(-c2ccccc2)c(=O)c1-c1ccc(Cl)cc1 | – | inactive: 1.8% [at 46.1 µM]
Clc1ccccc1OCc1nc(-c2ccncc2)no1 | inconclusive: 1.26 µM [activator, single point] | –
CC(C)(C)OC(=O)N/N=C/c1ccc(C(=O)O)cc1 | inconclusive: 3.16 µM [activator, single point] | –
CC(C)NC(=O)c1cc(-c2ccc3c(c2)OCO3)on1 | inconclusive: 35.5 µM [inhibitor, single point] | –
CC(C)n1c(SCC(=O)Nc2nc3ccccc3s2)nc2c1c(=O)n(C)c(=O)n2C | inconclusive: 8.91 µM [inhibitor, single point] | –
C=CCn1c(SCc2csc(-c3ccc(Cl)cc3)n2)nnc1-c1ccccc1OC | inconclusive: 35.5 µM [inhibitor, single point] | –
Cc1cc(C)c(C#N)c(N2CCN(Cc3ccc4c(c3)OCO4)CC2)n1 | inconclusive: 17.8 µM [inhibitor, single point] | –

Structure (SMILES) | Potency | activity change, negative = inhibition
OC1CCCCC1N1CCC(c2ccccc2)CC1 (stereo unspecified) | inconclusive: 11.2 µM [inhibitor, single point] and inconclusive: 23.1 µM [activator, partial curve, poor fit] | –
CCOC(=O)CSc1nc2c(sc3ccc([N+](=O)[O-])cc32)c(=O)n1Cc1ccco1 | – | inactive: 9.52%
CN(Cc1ccccc1F)c1nc(-c2cccnc2)nc2ccccc12 | inconclusive: 2.82 µM [inhibitor, full curve, poor fit] | –
CN(CCO)C(=O)c1cccc2c1-c1ccccc1C2=O | – | inactive: -14.8%
COC(=O)c1cc(C(=O)N2CCN(c3cccc(C)c3C)CC2)cc([N+](=O)[O-])c1 | active: 4.47 µM | –
O=C(Nc1ccc(F)cc1F)c1ccc2c(=O)n3c(nc2c1)CCCCC3 | inconclusive: 11.2 µM [activator, partial curve, poor fit] | –
CC(Nc1ccc(Br)cc1)C(=O)N/N=C/c1ccccc1OCc1ccccc1 (stereo unspecified) | inconclusive: 23.1 µM [inhibitor, partial curve, poor fit] | –
Cc1cccc(C)c1NC(=S)NCCSc1ccc(Cl)cc1 | inconclusive: 35.5 µM [inhibitor, single point] | –
Cc1ccc(C)c(/C=C/C(=O)c2ccccc(=O)c2O)c1 | inconclusive: 32.6 µM [inhibitor, single point] | –
CC[C@H](C)[C@H](NC(=O)OCc1ccccc1)C(=O)Nc1ccc(NC(C)=O)cc1 | – | inactive: 0.699% [at 46.1 µM]
NNc1nc(-c2ccccc2)c2cc(Cl)ccc2n1 | inactive | –
O=C(/C=C/c1ccco1)Nc1ccccc1C(=O)Nc1cccc(C(=O)O)c1 | inconclusive: 6.31 µM [inhibitor, single point] | –
O=C(Nc1ncc(Cc2cccc(C(F)(F)F)c2)s1)c1ccc(-c2cccc([N+](=O)[O-])c2)o1 | active: 15.8 µM | –
CC(=O)OC[C@H]1O[C@H](CCON=C[C@@H](C)[C@H](OCc2ccccc2)C(C)C)C=C[C@@H]1OC(C)=O | inconclusive: 0.0473 µM [activator, full curve, poor fit] | –
O=C(COc1ccc(Br)cc1)NCCNC(=O)c1ccccn1 | inconclusive: 14.1 µM [activator, single point] | –
Cc1cc(N/N=C\c2ccc(Br)cc2)nc(-n2nc(C)cc2C)n1 | active: 2.24 µM | –
Cc1cc(C)cc(N(CC(=O)Nc2ccc(-c3nc4ccc(C)cc4s3)cc2)S(C)(=O)=O)c1 | inconclusive: 2.91 µM [activator, partial curve] | –
CC(=O)N1CCN(S(=O)(=O)c2cccc(C(=O)N(Cc3ccccc3)c3cccc(C)c3)c2)CC1 | inconclusive: 3.16 µM [inhibitor, partial curve, poor fit] | –
COc1ccc(CNC(=O)C/C(C)=N/NC(=O)C23CC4CC(CC(C4)C2)C3)cc1 | – | inactive: 3.45% [at 46.1 µM]
CC(C)=CCN1CCN(Cc2cn[nH]c2C2CCCCC2)CC1CCO (stereo unspecified) | inconclusive: 20 µM [activator, single point] | –
CC(C)Oc1ccc(C(=O)Nc2ccc(Cl)c(S(=O)(=O)Nc3ccc(Cl)cc3)c2)cc1 | inconclusive: 11.6 µM [inhibitor, single point] | –
COC(=O)c1cn(NC(=O)c2ccccc2[N+](=O)[O-])c(=O)c2ccccc12 | inconclusive: 4.47 µM [inhibitor, full curve, poor fit] | –
